Patent US20130078237A1 (Amgen, published 2013)

Molecular target: cynomolgus monkey CD27L (cynomolgus monkey)
Assay: hybridoma supernatant cross-reactivity screen

- binding: binds
B1: Ab6 (antibody, human IgG1, lambda, V domains shown)
VH: QVQLVQSGAEVKKPGASVKVSCKASGYTFTSYGISWVRQAPGQGLEWMGWISAYNGYTHYAQKLQGRVTMTTDTSTSTAYMELRSLRSDDTAVYYCARDYGGNDYYGMDVWGQGTTVTVSS
VL: QSVLTQPPSASGTPGQRVTISCSGSSSNIGINYVYWYQQLPGTAPKLLIYRSDQRPSGVPDRFSGSKSGTSASLALSGLRSEDEADYYCAAWDDSLSGVVFGGGTKLTVLG
notes: Fully human IgG1 from XenoMouse hybridoma

These are yes or no findings as the source states them, for the method shown. Binding can be weak; no strength is given.
